Measurements reported in PubChem BioAssay AID1224830 (NIAID, 2016)

Purpose: 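Genes whose knock-down alters the TNF-alpha reporter response to LPS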 (primary screen)
Cells: human THP-1 monocytic leukaemia cells, TNF dual-luciferase reporter clone, PMA-differentiated to macrophage-like cells
Reagents: siRNA pool against human genes, 50 nM
Timing: LPS for 4 h, given about 3 days after siRNA transfection
Challenge: bacterial LPS (TLR4 ligand), 10 ng/ml
Measured: 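Ratio of firefly to renilla light, scaled to the plate median and expressed as a robust z-score per replicate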
Reading the numbers: TNF reporter robust z-score: higher = stronger TNF reporter response to LPS
Hit rule: 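Each well counts as active if its z-score is over 2.8 or under -1.5; controls are left without a call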
This is an unselected part of about 18,000 reagents tested. About 2,900 of them (16%) count as active. 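Calls are made per well; low scores hint the gene aids the LPS response, high scores that it dampens it.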 Repeated entries: four replicate wells of each siRNA pool.

no.	target	TNF reporter robust z-score	outcome
1	NHS	-0.29	inactive
2	NHS	-0.25	inactive
3	NHS	-0.06	inactive
4	NHS	0.16	inactive
5	CES3	0.03	inactive
6	CES3	-0.51	inactive
7	CES3	0.15	inactive
8	CES3	0.24	inactive
9	ALYREF	3.45	active
10	ALYREF	0.73	inactive
11	ALYREF	1.01	inactive
12	ALYREF	2.12	inactive
13	CAPSL	-0.13	inactive
14	CAPSL	-1.3	inactive
15	CAPSL	0.39	inactive
16	CAPSL	1.39	inactive
17	OPN1LW	0.96	inactive
18	OPN1LW	1.33	inactive
19	OPN1LW	0.8	inactive
20	OPN1LW	0.77	inactive
21	EPGN	-0.76	inactive
22	EPGN	-0.86	inactive
23	EPGN	-0.51	inactive
24	EPGN	-0.93	inactive
25	ANGPTL2	0.51	inactive
26	ANGPTL2	2.1	inactive
27	ANGPTL2	0.04	inactive
28	ANGPTL2	1.61	inactive
29	GEMIN2	-0.63	inactive
30	GEMIN2	-0.47	inactive
31	GEMIN2	-0.36	inactive
32	GEMIN2	-0.11	inactive
33	DYRK1A	0.06	inactive
34	DYRK1A	-0.28	inactive
35	DYRK1A	-0.91	inactive
36	DYRK1A	-0.77	inactive
37	RAB33B	-0.54	inactive
38	RAB33B	0.43	inactive
39	RAB33B	0.11	inactive
40	RAB33B	1.12	inactive
41	RHBDL1	-1.38	inactive
42	RHBDL1	3.71	active
43	RHBDL1	-0.26	inactive
44	RHBDL1	-0.03	inactive
45	ANKRD42	0.92	inactive
46	ANKRD42	0.57	inactive
47	ANKRD42	-0.47	inactive
48	ANKRD42	0.67	inactive
49	B9D1	-0.75	inactive
50	B9D1	-1.36	inactive
51	B9D1	-1.52	active
52	B9D1	-1.02	inactive
53	RALGPS2	-1.17	inactive
54	RALGPS2	0.14	inactive
55	RALGPS2	-0.19	inactive
56	RALGPS2	-0.02	inactive
57	LAMA2	-0.5	inactive
58	LAMA2	-0.68	inactive
59	LAMA2	-1.02	inactive
60	LAMA2	0.41	inactive
61	TACC3	-1.23	inactive
62	TACC3	-1.47	inactive
63	TACC3	-1.05	inactive
64	TACC3	-0.65	inactive
65	PAPLN	-0.21	inactive
66	PAPLN	0.35	inactive
67	PAPLN	-0.59	inactive
68	PAPLN	0.79	inactive
69	DCLK3	2.13	inactive
70	DCLK3	1.62	inactive
71	DCLK3	1.03	inactive
72	DCLK3	1.08	inactive
73	TRIP12	0.68	inactive
74	TRIP12	0.37	inactive
75	TRIP12	-0.5	inactive
76	TRIP12	0.33	inactive
77	ZMYND11	-1.56	active
78	ZMYND11	-1.64	active
79	ZMYND11	-1.71	active
80	ZMYND11	-1.16	inactive
81	CCDC73	0.4	inactive
82	CCDC73	0.64	inactive
83	CCDC73	1.94	inactive
84	CCDC73	1.15	inactive
85	GTF3C5	1.74	inactive
86	GTF3C5	1.15	inactive
87	GTF3C5	1.13	inactive
88	GTF3C5	2.05	inactive
89	SEPTIN5	-0.38	inactive
90	SEPTIN5	-0.33	inactive
91	SEPTIN5	-1.19	inactive
92	SEPTIN5	-0.64	inactive
93	DBNDD2	0.57	inactive
94	DBNDD2	0.24	inactive
95	DBNDD2	-0.49	inactive
96	DBNDD2	0.63	inactive
97	ODAM	-1.49	inactive
98	ODAM	-0.55	inactive
99	ODAM	1.82	inactive
100	ODAM	-0.76	inactive
101	ADORA2A	-0.47	inactive
102	ADORA2A	-0.19	inactive
103	ADORA2A	0.49	inactive
104	ADORA2A	-0.51	inactive
105	OR10H3	-0.18	inactive
106	OR10H3	0.32	inactive
107	OR10H3	-0.11	inactive
108	OR10H3	0.76	inactive
109	SLC22A15	-0.57	inactive
110	SLC22A15	-0.31	inactive
111	SLC22A15	-1.07	inactive
112	SLC22A15	-0.24	inactive

Records listed above with an active call (6):
target	TNF reporter robust z-score	outcome
ALYREF	3.45	active
RHBDL1	3.71	active
B9D1	-1.52	active
ZMYND11	-1.56	active
ZMYND11	-1.64	active
ZMYND11	-1.71	active
